This note sets out measurements from patent US20190023785A1 (SHANGHAI JIAOTONG UNIVERSITY, published 2019).

By UniProt entry, the sequences of proteins in these tests, tags left out. Where a name states a change or a piece, a line headed by the entry shows the natural chain unless it says otherwise.
UniProt P61769: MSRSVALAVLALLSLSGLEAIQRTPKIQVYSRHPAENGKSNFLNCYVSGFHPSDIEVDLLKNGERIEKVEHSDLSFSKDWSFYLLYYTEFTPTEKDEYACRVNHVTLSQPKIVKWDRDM

The assay deals with T1, hFcRn&b2M protein (human, UniProt P61769 21-119, limits assumed).
T1 construct: also called hFcRn&β2M; human FcRn protein
Kind of assay: SPR (Biacore), hFcRn on CM5 chip, 200 nM analyte, pH 6.0 and pH 7.4. (Surface plasmon resonance follows binding to a sensor surface in real time, without labels.)

Results are given in words; binding and its absence hold for the method and conditions named. Some entries that bind do so weakly or less than the wild type. Where a sequence is shown, tags or fusion partners need not be part of it.

B1: fusion protein G12 (GLP1 (AA7-36; A8G, G22E, R36G)-linker-FnAb12 scFv) (protein)
chain: HGEGTFTSDVSSYLEEQAAKEFIAWLVKGGGGGGGSGGGGSGGGGSDIQLTQSPSSLSASVGDRVTLTCQATQDIDNNLNWYQQKPGKAPKLLIYDASNLETGVPSRFSGSGSGTDFTFTISDLQPEDVATYYCQQYYNLPLTFGGGTKVDIKRSRGGGGSGGGGSGGGGSLEMAEVQLVQSGAEVKKPGASVKVSCKASGYTFTSYDINWVRQATGQGLEWMGWMNPNSGNTGYAQKFQGRVTMTRNTSISTAYMELSSLRSEDTAVYYCARGVDLGDGWGQGTLVTVSS
As to B1, the binding entry was “binds”.
